In PMC4566978:
For at least one entry, the source does not settle the construct or the ends of the probe. A negative result means that nothing was seen under these conditions.

System: BnaA.TTG2.a.1 (His-tagged) (Brassica napus)
Test: EMSA
Conditions: Roche DIG Gel Shift kit binding protocol (buffer, salt, pH not stated), 100 ng protein, room temperature 30 min; 12% polyacrylamide gel in 25 mM Tris, 2 mM …; recombinant protein; protein details: His (pET-28a); label: digoxigenin

Sequence | binding result
CGTTGAACTTGAACTTGAATTCGTTGAACTTGAACTTGAATT (double strand) [mW-box] | no binding
CGTTGACCTTGACCTTGACTTCGTTGACCTTGACCTTGACTT (double strand) [W-box (classical)] | binds
TGGTAATCATAGTACACCAAGTTGACTGCACAGTGATAACATATATAT (double strand) [YUC2 promoter fragment] | binds
TTCAAGAAAATGTCAAAGTTTCTACATTCGTACTATTATATAATTGACTGAAGAAATTA (double strand) [TRP5 promoter fragment] | binds
